# For at least one compound, name, drawing or mass did not settle the structure.
# Legend:
# 3T3L1 adipocytes = assay: Adiponectin mRNA in 3T3L1 adipocytes treated with rosiglitazone; type: cell-based, mouse; details: differentiated 3T3L1 adipocytes, 1 μM, 24 hours
# db/db mice = assay: Rosiglitazone treatment of db/db mice on high-fat diet (adiponectin expression, glucose tolerance test)
smiles,measurement,setting,value
CN(CCOc1ccc(CC2SC(=O)NC2=O)cc1)c1ccccn1 (centres unmarked) [Rosiglitazone],adiponectin expression (mRNA),3T3L1 adipocytes,increased
same,adiponectin mRNA levels in WAT,db/db mice,significantly increased
same,"hyperglycemia (area under the glucose curve, glucose tolerance test)",db/db mice,ameliorated
same,"hyperinsulinemia (area under the insulin curve, glucose tolerance test)",db/db mice,ameliorated
same,serum levels of adiponectin,db/db mice,significantly increased
